Measured data: PubChem BioAssay AID1508587 (Peter MacCallum Cancer Centre, 2020)
The whole screen tested about 1,600 reagents; below is a part drawn at random. Of all reagents, 623 (39%) got an active call. 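Calls are for each duplex; lactate ratios contain extreme outliers.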 Unmarked entries are inactive. Reagents against one gene are numbered here.

Test: 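Retest of knockdowns boosting BRAF inhibitor action on lactate release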 (follow-up of hits)
System: human WM266.4 melanoma cells with a BRAF V600 mutation
Reagent: single siRNA against human genes, 25 nM
Timing: 96 h
Challenge: vemurafenib 300 nM (about IC25), given 48 h after transfection for 48 h
Detection: 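Medium lactate read by absorbance over DAPI-counted nuclei; ratio with versus without vemurafenib, set against non-targeting siRNA, averaged over 2 replicates; cell number also recorded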
Scale: lactate per cell, drug vs no drug: higher = less drug-induced drop in lactate per cell; lactate per cell with vemurafenib: higher = more lactate per cell under drug; lactate per cell without drug: higher = more lactate per cell without drug; cell growth with vemurafenib and cell growth without drug: higher = more cell growth over 48 h
Hit rule: 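a duplex is active when its lactate-per-cell ratio with versus without drug falls under 0.55, i.e. 2 SD below non-targeting; a gene is confirmed if 2 or more of 4 duplexes pass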

gene knocked down | reagent no. | lactate per cell, drug vs no drug | lactate per cell with vemurafenib | lactate per cell without drug | cell growth with vemurafenib | cell growth without drug
LSM1 (LSM1 homolog, mRNA degradation associated) | 1 | 0.63 | 1.45 | 1.5 | 0.28 | 0.37
LSM1 (LSM1 homolog, mRNA degradation associated) | 2 | 0.42 (active) | 0.6 | 0.93 | 0.63 | 0.57
LSM1 (LSM1 homolog, mRNA degradation associated) | 3 | 0.69 | 1.9 | 1.81 | 0.35 | 0.27
LSM1 (LSM1 homolog, mRNA degradation associated) | 4 | 0.68 | 1.15 | 1.12 | 0.87 | 0.86
PRM3 (protamine 3) | 1 | 0.26 (active) | 0.36 | 0.86 | 0.5 | 0.47
PRM3 (protamine 3) | 2 | 0.32 (active) | 0.78 | 1.54 | -0.01 | -0.06
PRM3 (protamine 3) | 3 | 0.38 (active) | 0.72 | 1.21 | 0.43 | 0.37
PRM3 (protamine 3) | 4 | 0.33 (active) | 0.98 | 1.86 | 0.34 | 0.07
PUS10 (pseudouridine synthase 10) | 1 | 0.55 | 1.4 | 1.7 | 0.55 | 0.49
PUS10 (pseudouridine synthase 10) | 2 | 0.6 | 1.05 | 1.18 | 0.88 | 0.58
PUS10 (pseudouridine synthase 10) | 3 | 0.62 | 1.26 | 1.42 | 0.21 | 0.38
PUS10 (pseudouridine synthase 10) | 4 | 0.58 | 0.99 | 1.17 | 0.63 | 0.47
OSBPL9 (oxysterol binding protein like 9) | 1 | 0.66 | 1.08 | 1.18 | 0.78 | 0.9
OSBPL9 (oxysterol binding protein like 9) | 2 | 0.48 (active) | 1.06 | 1.54 | -0.13 | 0.15
OSBPL9 (oxysterol binding protein like 9) | 3 | 0.62 | 1.14 | 1.33 | 0.86 | 0.72
OSBPL9 (oxysterol binding protein like 9) | 4 | 1 | 1.28 | 0.92 | 0.13 | 0.7
MAGEA9B (MAGE family member A9B) | 1 | 0.48 (active) | 1.19 | 1.71 | 0.51 | 0.2
MAGEA9B (MAGE family member A9B) | 2 | 0.77 | 0.9 | 0.78 | 0.72 | 0.68
MAGEA9B (MAGE family member A9B) | 3 | 0.59 | 0.78 | 0.9 | 0.7 | 0.92
MAGEA9B (MAGE family member A9B) | 4 | 0.68 | 1.61 | 1.59 | 0.22 | 0.18
ZNF597 (zinc finger protein 597) | 1 | 0.53 (active) | 1.08 | 1.29 | 0.91 | 0.68
ZNF597 (zinc finger protein 597) | 2 | 0.7 | 2.59 | 2.35 | -0.07 | 0
ZNF597 (zinc finger protein 597) | 3 | 0.57 | 1.06 | 1.17 | 0.79 | 0.75
ZNF597 (zinc finger protein 597) | 4 | 0.64 | 0.96 | 0.94 | 0.41 | 0.7
L2HGDH (L-2-hydroxyglutarate dehydrogenase) | 1 | 0.59 | 1.01 | 1.14 | 0.07 | 0.06
L2HGDH (L-2-hydroxyglutarate dehydrogenase) | 2 | 0.59 | 1.16 | 1.29 | 0.87 | 0.65
L2HGDH (L-2-hydroxyglutarate dehydrogenase) | 3 | 0.66 | 1.27 | 1.26 | 0.7 | 0.55
L2HGDH (L-2-hydroxyglutarate dehydrogenase) | 4 | 0.76 | 1.63 | 1.4 | 0.73 | 0.72
TPM2 (tropomyosin 2) | 1 | 0.55 | 2.12 | 2.63 | 0.08 | 0.04
TPM2 (tropomyosin 2) | 2 | 0.62 | 1.08 | 1.19 | 0.73 | 0.55
TPM2 (tropomyosin 2) | 3 | 0.62 | 1.12 | 1.24 | 0.71 | 0.58
TPM2 (tropomyosin 2) | 4 | 0.64 | 1.19 | 1.28 | 0.04 | 0.08
GOLGA6L9 (golgin A6 family like 9) | 1 | 0.53 (active) | 1.96 | 2.67 | 0.17 | 0.02
GOLGA6L9 (golgin A6 family like 9) | 2 | 0.46 (active) | 0.6 | 0.92 | 0.3 | 0.61
GOLGA6L9 (golgin A6 family like 9) | 3 | 0.42 (active) | 0.38 | 0.64 | 1.01 | 1.22
GOLGA6L9 (golgin A6 family like 9) | 4 | 0.53 (active) | 0.91 | 1.24 | 1.21 | 0.72

An excerpt taken from the entries so far, as a working copy:
gene knocked down | reagent no. | lactate per cell, drug vs no drug | lactate per cell with vemurafenib | lactate per cell without drug | cell growth with vemurafenib | cell growth without drug
PUS10 (pseudouridine synthase 10) | 1 | 0.55 | 1.4 | 1.7 | 0.55 | 0.49
PUS10 (pseudouridine synthase 10) | 2 | 0.6 | 1.05 | 1.18 | 0.88 | 0.58
PUS10 (pseudouridine synthase 10) | 3 | 0.62 | 1.26 | 1.42 | 0.21 | 0.38
